PubChem BioAssay AID1053208 | Peter MacCallum Cancer Centre – 2014
Purpose: 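Synthetic lethal interactions between gene loss and doxorubicin in osteosarcoma cells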 (primary screen). Cells: mouse osteosarcoma cells, early-passage culture from an engineered mouse model of fibroblastic bone tumour. Knock-down reagent: siRNA pool against mouse genes, 40 nM. Time to read-out: about 120 h (48 h before drug, then 72 h with drug). Challenge: doxorubicin 100 nM for 72 h, roughly 30-40% inhibitory dose. Measurement: 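Viability read as ATP luminescence after 72 h of 100 nM doxorubicin or none, duplicate wells averaged, scaled to non-targeting siRNA, then expressed as robust z-scores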. Scale: viability z-score with doxorubicin and doxorubicin viability vs non-targeting: higher = more viable cells under doxorubicin; viability z-score without drug: higher = more viable cells with knock-down alone; z-score of drug to no-drug ratio: higher = less drug sensitisation by knock-down. Hit rule: 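a pool counts as active when its viability z-score with doxorubicin is -2 or below and its z-score without drug lies between -2 and 2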.
Here is a random part of about 17,000 deposited reagents. 788 of them (4.7%) count as active. 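Calls rest on z-score classes alone; an extra cut-off of viability at most 70% of control was not applied to them.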 Reagent sequences are not shown.

Target gene | PubChem SID | combined z-score class | viability z-score with doxorubicin | viability z-score without drug | z-score of drug to no-drug ratio | doxorubicin viability vs non-targeting | Call
P2ry4 (pyrimidinergic receptor P2Y, G-protein coupled, 4) | SID152261255 | no change with or without drug | 0.9 | 1.18 | 0.22 | 1.02 | inactive
Dand5 (DAN domain family member 5, BMP antagonist) | SID152306169 | no change with or without drug | -0.22 | 0.51 | -0.45 | 0.92 | inactive
Or6k8 (olfactory receptor family 6 subfamily K member 8) | SID152263103 | no change with or without drug | 0.56 | 0.51 | 0.34 | 0.99 | inactive
Pcna (proliferating cell nuclear antigen) | SID152304173 | no change with or without drug | -0.34 | -0.51 | 0.11 | 0.91 | inactive
Akip1 (A kinase interacting protein 1) | SID152306223 | no change with or without drug | -0.9 | 0.34 | -1.01 | 0.86 | inactive
Cdkn1b (cyclin dependent kinase inhibitor 1B) | SID152315350 | no change with or without drug | 0 | -1.01 | 0.9 | 0.94 | inactive
Prag1 (PEAK1 related kinase activating pseudokinase 1) | SID152273361 | no change with or without drug | -0.56 | -1.18 | 0.34 | 0.89 | inactive
Tgm6 (transglutaminase 6) | SID152298527 | no change with or without drug | -0.67 | -1.01 | 0.11 | 0.88 | inactive
Hoxd12 (homeobox D12) | SID152262520 | no change with or without drug | -1.35 | -0.51 | -1.01 | 0.82 | inactive
Cyp1b1 (cytochrome P450, family 1, subfamily b, polypeptide 1) | SID152311757 | no change with or without drug | 0 | -0.67 | 0.56 | 0.94 | inactive
Srsf10 (serine and arginine-rich splicing factor 10) | SID152342072 | no change with or without drug | -0.22 | -0.84 | 0.45 | 0.92 | inactive
Ccdc181 (coiled-coil domain containing 181) | SID152262106 | high cell count without drug only | 0.79 | 3.2 | -1.01 | 1.01 | inactive
Cars1 (cysteinyl-tRNA synthetase 1) | SID152268688 | no change with or without drug | -1.69 | -1.01 | -1.01 | 0.79 | inactive
Evl (Ena-vasodilator stimulated phosphoprotein) | SID152288170 | no change with or without drug | -1.12 | 0.51 | -1.35 | 0.84 | inactive
Galk2 (galactokinase 2) | SID152283060 | no change with or without drug | -1.01 | -0.34 | -0.79 | 0.85 | inactive
Kitl (kit ligand) | SID152275912 | no change with or without drug | -0.22 | -0.84 | 0.45 | 0.92 | inactive
Nsun6 (NOL1/NOP2/Sun domain family member 6) | SID152267351 | high cell count with and without drug | 2.7 | 2.87 | 0.79 | 1.18 | inactive
Defb34 (defensin beta 34) | SID152319731 | no change with or without drug | 0.22 | 1.52 | -0.67 | 0.96 | inactive
Psmb6 (proteasome (prosome, macropain) subunit, beta type 6) | SID152316684 | low cell count with and without drug | -2.7 | -2.19 | -1.46 | 0.7 | inactive
Cbln4 (cerebellin 4 precursor protein) | SID152298819 | no change with or without drug | -1.57 | -0.34 | -1.35 | 0.8 | inactive
Or8g35 (olfactory receptor family 8 subfamily G member 35) | SID152286095 | no change with or without drug | 0.11 | -0.51 | 0.56 | 0.95 | inactive
Uqcrfs1 | SID152277603 | no change with or without drug | -0.22 | -1.69 | 1.12 | 0.92 | inactive
H2-M10.5 (histocompatibility 2, M region locus 10.5) | SID152324154 | no change with or without drug | 0.45 | 0.51 | 0.22 | 0.98 | inactive
E2f1 (E2F transcription factor 1) | SID152300856 | high cell count with doxorubicin only | 2.25 | 1.01 | 1.69 | 1.14 | inactive
Rgs10 (regulator of G-protein signalling 10) | SID152264232 | no change with or without drug | 0.34 | -0.51 | 0.79 | 0.97 | inactive
Sh3pxd2b (SH3 and PX domains 2B) | SID152288998 | no change with or without drug | 1.12 | 0.84 | 0.67 | 1.04 | inactive
4933440M02Rik (RIKEN cDNA 4933440M02 gene) | SID152304810 | no change with or without drug | -0.34 | -1.52 | 0.9 | 0.91 | inactive
Inpp4b (inositol polyphosphate-4-phosphatase, type II) | SID152302945 | no change with or without drug | 0.22 | 0.34 | 0.11 | 0.96 | inactive
Rhag (Rh associated glycoprotein) | SID152260746 | no change with or without drug | -0.22 | -0.17 | 0 | 0.92 | inactive
Kif20a (kinesin family member 20A) | SID152300820 | no change with or without drug | -0.79 | -0.51 | -0.34 | 0.87 | inactive
Mab21l3 (mab-21-like 3) | SID152267269 | no change with or without drug | 0.11 | 1.52 | -0.79 | 0.95 | inactive
Mrpl13 (mitochondrial ribosomal protein L13) | SID152328818 | no change with or without drug | 0.11 | -1.01 | 1.01 | 0.95 | inactive
1700067P10Rik (RIKEN cDNA 1700067P10 gene) | SID152284949 | high without drug; low with doxorubicin | -2.36 | 2.19 | -3.37 | 0.73 | inactive
Rnf168 (ring finger protein 168) | SID152322126 | no change with or without drug | 0.67 | 0.84 | 0.22 | 1 | inactive
Anapc15 (anaphase promoting complex C subunit 15) | SID152309419 | no change with or without drug | 0 | 0.17 | 0 | 0.94 | inactive
Dstn (destrin) | SID152273100 | no change with or without drug | 0 | 0.34 | -0.11 | 0.94 | inactive
Kctd12b (potassium channel tetramerisation domain containing 12b) | SID152270728 | no change with or without drug | -0.9 | -1.01 | -0.11 | 0.86 | inactive
Khnyn (KH and NYN domain containing) | SID152283276 | no change with or without drug | 0.45 | 0.34 | 0.34 | 0.98 | inactive
Cct5 (chaperonin containing TCP1 subunit 5) | SID152260270 | low cell count without drug only | -1.8 | -2.53 | 0 | 0.78 | inactive
Clcn1 (chloride channel, voltage-sensitive 1) | SID152326588 | no change with or without drug | -0.45 | -0.17 | -0.22 | 0.9 | inactive
Insl3 (insulin-like 3) | SID152313839 | no change with or without drug | 1.46 | 1.52 | 0.56 | 1.07 | inactive
Slc35e1 | SID152320810 | no change with or without drug | -0.45 | 0.51 | -0.67 | 0.9 | inactive
Nostrin (nitric oxide synthase trafficker) | SID152261657 | no change with or without drug | -0.22 | 0.51 | -0.45 | 0.92 | inactive
Glyctk (glycerate kinase) | SID152327025 | no change with or without drug | 0.67 | 1.35 | -0.11 | 1 | inactive
Mboat7 (membrane bound O-acyltransferase domain containing 7) | SID152305728 | no change with or without drug | 0.56 | 0.34 | 0.45 | 0.99 | inactive
Vmn1r82 (vomeronasal 1 receptor 82) | SID152285476 | no change with or without drug | 1.12 | 0.17 | 1.12 | 1.04 | inactive
Trap1a (tumor rejection antigen P1A) | SID152332441 | no change with or without drug | 0.45 | 0.84 | 0 | 0.98 | inactive
Thra (thyroid hormone receptor alpha) | SID152270275 | no change with or without drug | -0.34 | 0.51 | -0.56 | 0.91 | inactive
Krtap4-13 (keratin associated protein 4-13) | SID152279597 | no change with or without drug | -1.12 | 1.52 | -1.91 | 0.84 | inactive
Wdfy3 (WD repeat and FYVE domain containing 3) | SID152324550 | no change with or without drug | 1.12 | 0.84 | 0.67 | 1.04 | inactive
Dimt1 (DIM1 rRNA methyltransferase and ribosome maturation factor) | SID152317039 | no change with or without drug | -0.45 | 1.18 | -1.12 | 0.9 | inactive
Prpsap2 (phosphoribosyl pyrophosphate synthetase-associated protein 2) | SID152277424 | no change with or without drug | 0.9 | 0.51 | 0.67 | 1.02 | inactive
Psmd3 (proteasome (prosome, macropain) 26S subunit, non-ATPase, 3) | SID152319097 | low cell count with doxorubicin only | -2.7 | -0.67 | -2.36 | 0.7 | active
Or11l3 (olfactory receptor family 11 subfamily L member 3) | SID152337734 | no change with or without drug | -1.35 | -1.18 | -0.56 | 0.82 | inactive
Pik3ca | SID152301723 | no change with or without drug | -1.91 | -0.34 | -1.69 | 0.77 | inactive
Hmcn2 (hemicentin 2) | SID152334775 | no change with or without drug | 0.67 | 0.34 | 0.56 | 1 | inactive
Or10a5 (olfactory receptor family 10 subfamily A member 5) | SID152276790 | no change with or without drug | -0.11 | 0.17 | -0.11 | 0.93 | inactive
Adra2c (adrenergic receptor, alpha 2c) | SID152317570 | no change with or without drug | 0 | -0.34 | 0.34 | 0.94 | inactive
Syt13 (synaptotagmin XIII) | SID152297323 | no change with or without drug | 1.46 | -1.69 | 3.15 | 1.07 | inactive
Ctsk (cathepsin K) | SID152340523 | no change with or without drug | -1.35 | -0.84 | -0.79 | 0.82 | inactive
Fry (FRY microtubule binding protein) | SID152306117 | no change with or without drug | -1.35 | -0.84 | -0.79 | 0.82 | inactive
Fry (FRY microtubule binding protein) | SID152340322 | no change with or without drug | -1.35 | -1.18 | -0.56 | 0.82 | inactive
Rbp7 (retinol binding protein 7, cellular) | SID152336442 | no change with or without drug | -0.45 | -0.84 | 0.22 | 0.9 | inactive

No new results follow: 9 of the entries above.
Target gene | PubChem SID | combined z-score class | viability z-score with doxorubicin | viability z-score without drug | z-score of drug to no-drug ratio | doxorubicin viability vs non-targeting | Call
Nsun6 (NOL1/NOP2/Sun domain family member 6) | SID152267351 | high cell count with and without drug | 2.7 | 2.87 | 0.79 | 1.18 | inactive
Defb34 (defensin beta 34) | SID152319731 | no change with or without drug | 0.22 | 1.52 | -0.67 | 0.96 | inactive
Psmb6 (proteasome (prosome, macropain) subunit, beta type 6) | SID152316684 | low cell count with and without drug | -2.7 | -2.19 | -1.46 | 0.7 | inactive
Cbln4 (cerebellin 4 precursor protein) | SID152298819 | no change with or without drug | -1.57 | -0.34 | -1.35 | 0.8 | inactive
Or8g35 (olfactory receptor family 8 subfamily G member 35) | SID152286095 | no change with or without drug | 0.11 | -0.51 | 0.56 | 0.95 | inactive
Uqcrfs1 | SID152277603 | no change with or without drug | -0.22 | -1.69 | 1.12 | 0.92 | inactive
H2-M10.5 (histocompatibility 2, M region locus 10.5) | SID152324154 | no change with or without drug | 0.45 | 0.51 | 0.22 | 0.98 | inactive
E2f1 (E2F transcription factor 1) | SID152300856 | high cell count with doxorubicin only | 2.25 | 1.01 | 1.69 | 1.14 | inactive
Rgs10 (regulator of G-protein signalling 10) | SID152264232 | no change with or without drug | 0.34 | -0.51 | 0.79 | 0.97 | inactive
